Experimental data: paper PMC5349910, “Discovery of BPR1K871, a quinazoline based, multi-kinase inhibitor for the treatment of AML and solid tumors: Rational design, synthesis, in vitro and in vivo evaluation” (Oncotarget, 2016)

Assays:
Assay type in all cases: cell-based
H1975 cells = test: Anti-proliferative activity, H1975; details: Homo sapiens, NCI-H1975; NSCLC-EGFR LR/TM; supplement values ± SEM
Mia-PaCa2 cells = test: Anti-proliferative activity, Mia-PaCa2; details: Homo sapiens, MIA PaCa-2, Human Pancreatic Cancer; supplement values ± SEM
H2228 cells = test: Anti-proliferative activity, H2228; details: Homo sapiens, NCI-H2228; NSCLC-ALK; supplement values ± SEM
HCT-116 cells = test: Anti-proliferative activity, HCT-116; details: Human Colon Cancer, supplement values ± SEM
CL-97 cells = test: Anti-proliferative activity, CL-97; details: CL97; Human Lung Cancer; supplement values ± SEM

EC50 (H1975 cells): 517 nM | EC50 (Mia-PaCa2 cells): 995 nM | EC50 (H2228 cells): 609 nM | EC50 (HCT-116 cells): 482 nM
SMILES: CO[C@@H]1[C@H](N(C)C(=O)c2ccccc2)C[C@H]2O[C@]1(C)n1c3ccccc3c3c4c(c5c6ccccc6n2c5c31)C(=O)NC4 [PKC412]
EC50 (CL-97 cells): 916 nM
